From patent US9328083B2, “2-aminated methylene or 2-esterified methylene tanshinone derivatives, and preparation method and application thereof” (HANGZHOU BENSHENG PHARMACEUTICAL CO., LTD., priority 2011, dated 2016)
Some results were stated once for a whole list of compounds, not compound by compound.

Tests used:
[1] = tested on: RPMI8226 (multiple myeloma); experiment: MTT growth inhibition of multiple myeloma cells, 72 h; format: cell-based, human; conditions: RPMI8226, vs tanshinone I
Method: Myeloma cell lines: RPMI8226 (multiple myeloma), purchased from Fuxiang Bio-tech Co. Ltd., Shanghai, China.
(§1) The standard sample of tanshinone I (TA) and the 2-aminated methylene or 2-esterified methylene tanshinone I derivatives of the present invention are sufficiently dissolved with dimethylsulfoxide to produce a stock solution of 10 mg/mL, which is refrigerated at 4° C. and stored in dark, and is diluted with a cell culture medium to the desired concentration prior to experimentation.
Obtaining 6000 well-growing myeloma cells as above and inoculating them into wells of a 96-well cell culture plate. The culture medium is the 1640 cell culture medium containing 10% fetal bovine serum. After adding the 2-aminated methylene or 2-esterified methylene tanshinone I derivatives of different concentrations and mixing uniformly, placing the plate in a carbon dioxide cell incubator (5% CO2) at 37° C. and incubated for 72 hours. Then the viable cell concentration is determined by MTT method.

[2] = tested on: Hep G2 (human liver cancer cell); experiment: MTT growth inhibition of human solid tumor cells, 72 h; format: cell-based; conditions: Hep-G2, vs tanshinone I
Method: (§2) Hep-2 (laryngeal carcinoma), A549 (human lung cancer), CaES-17 (esophageal cancer cell), PC-3 (prostate cancer), CNE (nasopharyngeal carcinoma cell), and SK-OV-3 (ovarian cancer cell), all of which are purchased from China Center For Type Culture Collection; RKO (human colon adenocarcinoma cell), MGC 803 (human gastric cancer cell), MG63 (osteosarcoma) and U87 MG (malignant glioma cell), all of which are purchased from Fuxiang Bio-tech Co. Ltd., Shanghai, China; PANC-1 (pancreatic cancer), Hep G2 (human liver cancer cell), Becap37 (human breast cancer cell) and Hela (human cervical cancer cell), all of which are donated by Cancer Research Institute of Zhejiang University, China.
as §1
(§3) Obtaining 4000 well-growing human solid tumor cells and inoculating them into wells of a 96-well cell culture plate. The culture medium is DMEM High Glucose cell culture medium containing 10% fetal bovine serum. The plate is placed in a carbon dioxide cell incubator (5% CO2) at 37° C. and incubated for 24 hours. After adding the 2-aminated methylene or 2-esterified methylene tanshinone I derivatives of different concentrations and mixing uniformly, the plate is placed in a carbon dioxide cell incubator (5% CO2) at 37° C. and incubated for 72 hours. Then the viable cell concentration is determined by the MTT method.

[3] = tested on: A549 (human lung cancer); experiment: as above; format: cell-based; conditions: A549, vs tanshinone I
Method: as §2, §1, §3

[4] = tested on: Becap37 (human breast cancer cell); experiment: as above; format: cell-based; conditions: Becap37, vs tanshinone I
Method: as §2, §1, §3

[5] = tested on: CNE (nasopharyngeal carcinoma cell); experiment: as above; format: cell-based; conditions: vs tanshinone I
Method: as §2, §1, §3

Structure (SMILES) | improvement of anti-Hep-G2 activity as compared with tanshinone I [2] | improvement of anti-A549 activity as compared with tanshinone I [3] | other results
Cc1c(CNCCO)oc2c1C(=O)C(=O)c1c-2ccc2c(C)cccc12 [BS-TA-65] |  |  | improvement of the inhibition of the RPMI8226 cell line as compared with tanshinone I [1]: more than 7 fold
Cc1c(CN(C)CCOC(=O)[C@@H](N)C(C)C)oc2c1C(=O)C(=O)c1c-2ccc2c(C)cccc12 [BS-TA-71] | more than 3 fold | more than 4 fold | improvement of anti-Becap37 activity as compared with tanshinone I [4]: more than 7 fold; improvement of anti-CNE activity as compared with tanshinone I [5]: more than 11 fold
Cc1c(CN(C)CCOC(=O)CNC(=O)OC(C)(C)C)oc2c1C(=O)C(=O)c1c-2ccc2c(C)cccc12 [BS-TA-72] | more than 3 fold |  | improvement of the inhibition of the RPMI8226 cell line as compared with tanshinone I [1]: more than 7 fold
Cc1c(CN(C)Cc2ccccc2)oc2c1C(=O)C(=O)c1c-2ccc2c(C)cccc12 [BS-TA-B01] |  |  | improvement of anti-Becap37 activity as compared with tanshinone I [4]: more than 7 fold
CCN(C)Cc1oc2c(c1C)C(=O)C(=O)c1c-2ccc2c(C)cccc12 [BS-TA-B03] |  | more than 4 fold | 
Cc1c(CN2CCCN(C)CC2)oc2c1C(=O)C(=O)c1c-2ccc2c(C)cccc12 [BS-TA-B12] |  |  | improvement of anti-CNE activity as compared with tanshinone I [5]: more than 11 fold
Cc1c(CN(C)CCO)oc2c1C(=O)C(=O)c1c-2ccc2c(C)cccc12 [BS-TA-B17] | more than 3 fold | more than 4 fold | 
